## Results of single-concentration screens

Sequences of proteins named here, by UniProt entry; tags and fusion partners are left off.
UniProt P9WPC5, whole entry: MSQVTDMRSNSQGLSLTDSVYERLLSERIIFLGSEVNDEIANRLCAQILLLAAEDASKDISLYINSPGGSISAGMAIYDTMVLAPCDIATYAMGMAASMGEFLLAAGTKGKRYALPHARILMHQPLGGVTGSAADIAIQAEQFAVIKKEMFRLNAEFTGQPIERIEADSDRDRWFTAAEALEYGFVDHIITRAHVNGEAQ
UniProt P9WPC3, whole entry partner: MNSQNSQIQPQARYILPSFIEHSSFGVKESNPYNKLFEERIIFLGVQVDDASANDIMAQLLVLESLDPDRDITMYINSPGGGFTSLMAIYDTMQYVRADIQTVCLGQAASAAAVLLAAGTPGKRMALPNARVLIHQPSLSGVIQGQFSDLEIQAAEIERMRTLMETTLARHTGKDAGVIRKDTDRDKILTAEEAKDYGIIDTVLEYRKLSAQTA
UniProt I6X8D2, whole entry: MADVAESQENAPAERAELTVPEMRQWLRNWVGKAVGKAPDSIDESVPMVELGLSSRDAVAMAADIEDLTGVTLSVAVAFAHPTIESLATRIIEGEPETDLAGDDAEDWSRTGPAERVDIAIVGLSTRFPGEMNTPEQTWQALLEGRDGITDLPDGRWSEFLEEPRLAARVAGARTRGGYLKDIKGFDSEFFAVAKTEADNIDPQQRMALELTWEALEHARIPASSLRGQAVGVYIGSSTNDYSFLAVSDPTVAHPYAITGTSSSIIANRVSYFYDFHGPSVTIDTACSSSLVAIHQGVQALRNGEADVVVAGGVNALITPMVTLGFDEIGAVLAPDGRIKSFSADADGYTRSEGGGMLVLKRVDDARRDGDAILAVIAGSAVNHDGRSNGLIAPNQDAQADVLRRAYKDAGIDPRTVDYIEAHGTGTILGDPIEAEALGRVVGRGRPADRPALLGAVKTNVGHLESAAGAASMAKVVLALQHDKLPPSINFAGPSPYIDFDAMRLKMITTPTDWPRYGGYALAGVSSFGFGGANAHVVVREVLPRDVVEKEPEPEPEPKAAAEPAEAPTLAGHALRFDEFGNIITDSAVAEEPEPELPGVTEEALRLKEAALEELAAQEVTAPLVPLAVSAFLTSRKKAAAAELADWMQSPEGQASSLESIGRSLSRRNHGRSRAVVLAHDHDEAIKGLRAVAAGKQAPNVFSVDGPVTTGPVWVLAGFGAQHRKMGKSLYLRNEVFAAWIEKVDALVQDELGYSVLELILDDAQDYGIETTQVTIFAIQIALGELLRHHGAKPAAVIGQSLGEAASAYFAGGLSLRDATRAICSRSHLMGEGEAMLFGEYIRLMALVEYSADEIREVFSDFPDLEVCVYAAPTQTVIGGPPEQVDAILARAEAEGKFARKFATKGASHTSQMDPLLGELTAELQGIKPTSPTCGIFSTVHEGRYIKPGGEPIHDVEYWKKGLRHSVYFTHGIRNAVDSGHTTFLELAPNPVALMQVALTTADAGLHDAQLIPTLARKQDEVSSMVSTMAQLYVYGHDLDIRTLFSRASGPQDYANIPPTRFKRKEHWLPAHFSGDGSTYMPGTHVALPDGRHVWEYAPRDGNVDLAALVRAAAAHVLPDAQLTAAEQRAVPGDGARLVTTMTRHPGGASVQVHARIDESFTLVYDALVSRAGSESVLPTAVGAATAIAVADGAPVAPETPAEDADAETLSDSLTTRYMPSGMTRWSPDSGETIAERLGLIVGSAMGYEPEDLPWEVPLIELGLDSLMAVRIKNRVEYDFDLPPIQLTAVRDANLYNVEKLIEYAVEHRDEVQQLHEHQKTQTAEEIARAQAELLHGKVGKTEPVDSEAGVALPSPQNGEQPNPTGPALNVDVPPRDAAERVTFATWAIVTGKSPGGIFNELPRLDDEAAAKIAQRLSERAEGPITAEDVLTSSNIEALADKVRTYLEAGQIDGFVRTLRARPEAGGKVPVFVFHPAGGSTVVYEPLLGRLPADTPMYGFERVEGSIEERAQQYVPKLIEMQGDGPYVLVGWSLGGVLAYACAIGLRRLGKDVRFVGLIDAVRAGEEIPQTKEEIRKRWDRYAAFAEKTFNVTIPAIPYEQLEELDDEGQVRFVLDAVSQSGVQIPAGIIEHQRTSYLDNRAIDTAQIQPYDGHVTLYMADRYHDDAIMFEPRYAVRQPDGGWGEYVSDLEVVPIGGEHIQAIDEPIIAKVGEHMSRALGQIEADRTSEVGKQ
UniProt P9WFT3, whole entry: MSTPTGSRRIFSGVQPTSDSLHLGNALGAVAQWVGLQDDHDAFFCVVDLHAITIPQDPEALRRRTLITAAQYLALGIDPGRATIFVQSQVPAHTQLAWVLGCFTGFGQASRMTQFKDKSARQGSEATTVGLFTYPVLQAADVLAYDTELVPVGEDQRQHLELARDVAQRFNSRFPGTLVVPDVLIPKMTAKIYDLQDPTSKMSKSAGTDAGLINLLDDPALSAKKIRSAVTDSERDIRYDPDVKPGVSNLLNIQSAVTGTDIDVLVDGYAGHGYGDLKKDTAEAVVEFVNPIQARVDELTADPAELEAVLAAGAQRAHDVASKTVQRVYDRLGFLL

ClpP1P2: 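Protease assay of ClpP1P2, read by the AMC dye that it sets free. Target: ClpP1P2, Mycobacterium tuberculosis (UniProt P9WPC5 and UniProt P9WPC3). Compounds at 50 µM. Higher reads as stronger inhibition, judged from the few compounds that gave an IC50. Most other retested compounds had strongly negative values. About 69,000 compounds were tested under these conditions; 0.015% (about 10) showed 50% or more at least once.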
Pks13 thioesterase: 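Polyketide synthase Pks13, Mycobacterium tuberculosis (UniProt I6X8D2). Enzyme assay of the thioesterase domain of polyketide synthase 13; the read-out is not stated. Compounds at 30 µM. The record gives no direction; the compounds picked for IC50 retests had high values, so higher reads as stronger inhibition. About 67,000 compounds were tested under these conditions; 0.46% (about 300) showed 50% or more at least once.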
MtTrpRS: 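Tryptophan-tRNA ligase, Mycobacterium tuberculosis (UniProt P9WFT3). Enzyme assay of tryptophanyl-tRNA synthetase; the read-out is not stated. Concentration: 10 µM. Direction is not recorded; retested compounds ran higher, which suggests that high means inhibition. Size under these conditions: about 65,000 compounds, about 64 of them at 50% or above in at least one test.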

Values are the deposited “Percent Effect”, in %. The controls that fix the scale are not given in the record; negative values are as filed. The compounds are a random part of those screened. A dash means the value is not listed here; it may have been measured.

SMILES | ClpP1P2 | Pks13 thioesterase | MtTrpRS
CC(=O)N1CCN(c2cc(C3CN(C)CCO3)nc(C)n2)CC1 (stereo not given) | 1.645 | -49.75 | -1.756
O=C1CCN(CCS(=O)(=O)c2ccc(Cl)cc2)CCN1 | 4.295 | -11.46 | 2.743
CCc1ccc(O)c(C(=O)NC2CCN(C(=O)OC)CC2)c1 | 11.48 | 15.11 | -2.747
C[C@]1(O)CN(CC(=O)N2CCCC2)CC[C@@H]1Oc1cccc(F)c1 | -1.688 | -31.51 | -
CCN(CC)C(=O)Cn1c(-c2ccc(Cl)cc2)nc(C)c(CCO)c1=O | 6.192 | -7.322 | 0.5693
Cc1ccccc1C(CNC(=O)CSc1nnc(N)s1)N(C)C (stereo not given) | -4.676 | -10.39 | -0.551
Cc1cc(NCCc2nnc(N)s2)nc(-c2cccnc2)n1 | 2.477 | -18.01 | 1.253
COc1cc(NC(=O)NC2CCOCC2)ccc1N1CCOC1=O | -6.395 | - | 13.25
CCn1c(CN(C)C)nnc1C1CCN(c2nccc(NC)n2)CC1 | -19.86 | -5.318 | -4.069
Cn1cc(C(=O)OC2CN(c3nc4c(C(F)(F)F)cccc4s3)C2)nn1 | -2.103 | -4.147 | 1.633
CN(C)CCN1CCC2(CCN(C(=O)c3cccnc3)CC2)C1=O | 5.951 | -8.733 | -6.468
CN(CC(=O)N1CCCCC1c1nc(C(C)(C)C)cs1)C1CC1 (stereo not given) | 15.49 | -6.444 | -0.2839
Cc1cnn(-c2ccc(S(N)(=O)=O)cc2F)c1 | -5.553 | -10.69 | 8.583
CS(=O)(=O)CCNC(=O)Nc1ccc(Cl)cc1-n1cccc1 | 1.718 | 3.506 | 5.815
O=C(NCCNCc1cccc2c1OCCCO2)C1CCCC1 | 3.944 | 4.83 | 0.4112
COc1cccc(OC)c1CN1CC(=O)N(c2ccc(C)cc2)CC1C (stereo not given) | -15.08 | -5.757 | 0.7407
CS(=O)(=O)NC1CCCN(C(=O)COCc2ccccc2)C1 (stereo not given) | -29.12 | -10.88 | -6.344
CCN1CCc2[nH]cnc2C12CCN(c1ccc(Cl)c(C(=O)O)n1)CC2 | 11.77 | -27.76 | -2.948
OC(CN(Cc1ccccc1)Cc1ccon1)c1ccco1 (stereo not given) | 10.02 | -9.779 | 0.1211
COCCNC(=O)c1c(-n2cnnn2)sc2c1CCCC2 | -11.49 | -10.75 | 4.881
CC(C)C(C)NC(=O)Nc1ccc(CS(C)(=O)=O)cc1 (stereo not given) | -2.862 | -37.47 | -3.284
COc1ccncc1NC(=O)C1(c2ccc(F)cc2)CCC1 | 2.689 | -32.73 | -2.169
CCn1cnnc1CNC(=O)N(C)Cc1ccc2c(c1)OCO2 | 2.818 | -7.025 | -1.846
Cc1nn(CC(=O)N2CCC(Nc3cccnn3)CC2)c(C)c1Cl | 1.339 | -15.35 | 4.874
CCn1nc(C)c(CN2CCC(c3ccn[nH]3)C2)c1C (stereo not given) | -4.83 | 4.373 | -1.76
CN(Cc1ccncc1)C1CC2(CCN(c3ncccn3)CC2)C1 | -4.431 | -28.9 | -1.623
CNC(=O)C(NC(C)=O)c1ccc(F)c(F)c1 (stereo not given) | -6.619 | -18.18 | -2.668
CC(C)CNC(=O)[C@H]1CCS(=O)(=O)[C@@H]2CN(c3ncccn3)C[C@H]12 | 9.41 | -5.284 | -
CC(C)c1nnsc1CN1CCc2[nH]nc(-c3ccc(F)c(F)c3)c2C1 | -5.51 | -44.19 | -1.767
Cc1nccc(CNC(=O)CCc2c(C)nc3cc(O)nn3c2C)n1 | 3.407 | 0.937 | -4.576
Cc1nc[nH]c1CN1C[C@@H]2CC[C@H](C1)N(C(=O)CCc1cnn(C)c1)C2 | -4.908 | -3.207 | -3.981
COCc1ncn2c1CN(S(=O)(=O)c1ccc(C)cc1)CC2 | -12.61 | 6.507 | -2.49
CC(C)c1nc2n(n1)CC(NCc1ncc(-c3ccccc3)o1)CC2 (stereo not given) | -0.931 | -14.88 | 1.329
COC(=O)c1cccnc1N1CCC(Oc2cccc(F)c2)CC1 | -6.75 | 33.35 | 0
CCc1nc(C2CCCN2C(=O)c2nccnc2N)no1 (stereo not given) | -17.54 | 29.61 | 1.707
Cc1noc(-c2ccc(N3CCN(Cc4ncccc4C)CC3)nc2)n1 | 5.413 | -5.501 | -1.25
CCN(CCC(F)(F)F)C(=O)Nc1cccc(N2CCOCC2)c1 | -10.16 | -2.569 | 5.031
CC(=O)N1CC[C@H]2OCC[C@@H](C(=O)NCc3ccco3)[C@H]2C1 | 10.55 | -3.516 | 3.132
Fc1ccc(-c2n[nH]cc2CNCCn2cccn2)cc1 | 3.054 | -1.921 | -3.154
Cc1cc(CN(C2CC2)C(C)C(C)C)on1 (stereo not given) | -16.2 | -17.37 | -1.037
Cc1ccc(NC2CCN(C(=O)c3ccsc3)CC2)nn1 | -11.68 | -11.06 | -3.437
O=C(O)[C@@H]1CN(C(=O)CN2CCCCCC2)C[C@H]1c1ccccc1 | -0.04116 | -2.7 | -2.429
O=C(c1ccc(-n2cccn2)nc1)N1CCC(c2ccn[nH]2)C1 (stereo not given) | -2.101 | -1.704 | -1.952
CC(CC#N)NC(=O)c1cc(Br)c2c(c1)OCCO2 (stereo not given) | -9.994 | -10.14 | -3.801
CCCc1cc(NCc2cc(C)on2)n2nccc2n1 | 7.681 | -2.641 | 7.531
CN(C)CCNC(=O)CCC1CCN(C(=O)c2ccc(O)cn2)CC1 | -2.218 | -8.038 | 2.637
Cc1ncc(CN2CCC(c3nc4cc(Cl)ccc4o3)CC2)s1 | 1.509 | -21.73 | 20.95
CC(CC(=O)NCCNS(C)(=O)=O)C1CCCCC1 (stereo not given) | -11.09 | -5.873 | -0.6958
COc1cc(C#N)ccc1OCCN1CCC(n2ccnc2)CC1 | -0.6647 | -35.07 | -0.9166
COC(=O)CCC(=O)N1CCC2(CN(Cc3ccc(Cl)cc3)C2)C1 | -18.75 | -8.982 | -3.358
Cc1cc(C)cc(OCCCn2nc3ccccn3c2=O)c1 | -3.288 | 0.2013 | 2.463
CC1=N[C@@]2(CC[C@@H]3CN(CC(C)C)C[C@@H]32)C(=O)N1CC(C)C | 1.28 | -23.67 | -9.63
CCN1CCC2(CCC(=O)N2Cc2cccc(C)n2)CC1 | 3.65 | 0.207 | 2.061
CCS(=O)(=O)N1CCc2c(COCc3ccncc3)cncc2C1 | -5.678 | -40.15 | -
CCOC(C)c1noc(CN2CCN(Cc3cccnc3)CC2)n1 (stereo not given) | -6.099 | -13.28 | 8.364
CC(=O)N1CCCN(CCCSCc2ccccc2)CC1 | 3.255 | -21.75 | 3.565
Cc1noc(C)c1C(C)NC(=O)N1CCCN(C(=O)c2ccsc2)CC1 (stereo not given) | -4.274 | -31.78 | -4.369
Cc1ncnc2c1CCN(CC1CCOC1)CC2 (stereo not given) | 5.533 | -21.57 | -9.325
CN1CCN(Cc2cn3c(n2)CN(C(=O)c2ccco2)CC3)CC1 | -14.57 | -26.05 | -0.8364
O=C1N(CC2CC2)CCC12CCCN(c1ncc(F)cn1)C2 (stereo not given) | -3.918 | 14.84 | -
CN(C)c1ccccc1CN1CCCCC1CNS(C)(=O)=O (stereo not given) | -13.52 | -6.29 | -2.658
CC[C@@]1(O)CCN(C(=O)CCSCc2ccc(F)cc2)C[C@H]1O | -1.649 | -14.98 | -1.302
CCCS(=O)(=O)Nc1ccc2c(c1)OCC(C)(C)C(=O)N2C | 11.92 | -8.028 | -2.637
CC(C)CC(NC(=O)Nc1ccc(F)c(Cl)c1)C(=O)O (stereo not given) | -6.792 | 1.039 | -0.7698
Cn1c(SCC(O)COCc2ccccc2Cl)nnc1C1CC1 (stereo not given) | -3.514 | -33.02 | 1.135
Cc1cc(C(=O)N2CCCC(n3ccnc3C)C2)c(C)s1 (stereo not given) | 0.2174 | -45.31 | -0.1059
CC1(NC(=O)CC2CCc3ccccc32)CCOCC1 (stereo not given) | -9.86 | -5.729 | -0.6734
O=S(=O)(NCC1(O)CCOCC1)c1ccccc1Br | -1.32 | -31.66 | 2.204
Cc1cnc(N2CCC3(CC2)C(c2ccccc2)CC(=O)N3C)nc1 (stereo not given) | -0.1662 | -20.23 | 4.167

Some entries from above, unchanged:

{"smiles": "COc1cccc(OC)c1CN1CC(=O)N(c2ccc(C)cc2)CC1C", "stereo": "stereo not given", "ClpP1P2": -15.08, "Pks13 thioesterase": -5.757, "MtTrpRS": 0.7407}
{"smiles": "Cc1nc[nH]c1CN1C[C@@H]2CC[C@H](C1)N(C(=O)CCc1cnn(C)c1)C2", "ClpP1P2": -4.908, "Pks13 thioesterase": -3.207, "MtTrpRS": -3.981}
{"smiles": "CCN(CCC(F)(F)F)C(=O)Nc1cccc(N2CCOCC2)c1", "ClpP1P2": -10.16, "Pks13 thioesterase": -2.569, "MtTrpRS": 5.031}
{"smiles": "CN(CC(=O)N1CCCCC1c1nc(C(C)(C)C)cs1)C1CC1", "stereo": "stereo not given", "ClpP1P2": 15.49, "Pks13 thioesterase": -6.444, "MtTrpRS": -0.2839}
{"smiles": "Cc1cc(C)cc(OCCCn2nc3ccccn3c2=O)c1", "ClpP1P2": -3.288, "Pks13 thioesterase": 0.2013, "MtTrpRS": 2.463}
{"smiles": "CN1CCN(Cc2cn3c(n2)CN(C(=O)c2ccco2)CC3)CC1", "ClpP1P2": -14.57, "Pks13 thioesterase": -26.05, "MtTrpRS": -0.8364}
{"smiles": "CC[C@@]1(O)CCN(C(=O)CCSCc2ccc(F)cc2)C[C@H]1O", "ClpP1P2": -1.649, "Pks13 thioesterase": -14.98, "MtTrpRS": -1.302}
{"smiles": "Cc1noc(-c2ccc(N3CCN(Cc4ncccc4C)CC3)nc2)n1", "ClpP1P2": 5.413, "Pks13 thioesterase": -5.501, "MtTrpRS": -1.25}

Data taken from ChEMBL document CHEMBL3988442, “University of Dundee, Small-Polar-MMV Screening Library” (2021).